Data reported in the supplement of paper PMC11438910.
The list shows a part of the results. Only a few entries rise above the background.

Legend:
Assay in all cases: fluorescence intensity of antibody binding to polysaccharide-coupled beads; higher = stronger binding
[1] = target: pneumococcal polysaccharide Pn35C
[2] = target: pneumococcal polysaccharide Pn35F
[3] = target: pneumococcal polysaccharide Pn36
[4] = target: pneumococcal polysaccharide Pn37
[5] = target: pneumococcal polysaccharide Pn38
[6] = target: pneumococcal polysaccharide Pn39
[7] = target: pneumococcal polysaccharide Pn4
[8] = target: pneumococcal polysaccharide Pn40
[9] = target: pneumococcal polysaccharide Pn41A
[10] = target: pneumococcal polysaccharide Pn41F
[11] = target: pneumococcal polysaccharide Pn42
[12] = target: pneumococcal polysaccharide Pn43
[13] = target: pneumococcal polysaccharide Pn44
[14] = target: pneumococcal polysaccharide Pn45
[15] = target: pneumococcal polysaccharide Pn46
[16] = target: pneumococcal polysaccharide Pn47A
[17] = target: pneumococcal polysaccharide Pn47F
[18] = target: pneumococcal polysaccharide Pn48
[19] = target: pneumococcal polysaccharide Pn5
[20] = target: pneumococcal polysaccharide Pn6A
[21] = target: pneumococcal polysaccharide Pn6B
[22] = target: pneumococcal polysaccharide Pn6C
[23] = target: pneumococcal polysaccharide Pn6D
[24] = target: pneumococcal polysaccharide Pn7A
[25] = antibody concentration 2337.65 ng/mL
[26] = antibody concentration 12500 ng/mL
[27] = antibody concentration 0.1 ng/mL
[28] = antibody concentration 0.534724 ng/mL
[29] = antibody concentration 2.8593 ng/mL
[30] = antibody concentration 15.2894 ng/mL
[31] = antibody concentration 81.7561 ng/mL
[32] = antibody concentration 437.17 ng/mL

B1: 4-99.1 (protein)
chain 1: QVQLQESGPGLVKPSETLSLTCAVSGDSISSGYFWGWIRQPPGKGLEYIGYISGESGNTYDNPSLKSRVTISKDTSKNQFSLNLRSVTAADTAVYYCARRTVYIGFDYWGQGVLVTVSS
chain 2: QAAPTQPPSVSGSPGQSVTISCTGTSSDIGYYNAVSWYQQHPGKAPKLMIYEVSKRPSGVSDRFSGSKSGTTASLTISGLQAEDEADYYCSSYAGTNTYIFGAGTRLTVL
fluorescence intensity [1, 25]: 21.5 MFI
fluorescence intensity [1, 26]: 28.5 MFI
fluorescence intensity [2, 27]: 21 MFI
fluorescence intensity [2, 28]: 19.5 MFI
fluorescence intensity [2, 29]: 19.5 MFI
fluorescence intensity [2, 30]: 19.2 MFI
fluorescence intensity [2, 31]: 18.5 MFI
fluorescence intensity [2, 32]: 20.2 MFI
fluorescence intensity [2, 25]: 23.2 MFI
fluorescence intensity [2, 26]: 28.5 MFI
fluorescence intensity [3, 27]: 17 MFI
fluorescence intensity [3, 28]: 17 MFI
fluorescence intensity [3, 29]: 15 MFI
fluorescence intensity [3, 30]: 16.5 MFI
fluorescence intensity [3, 31]: 15.8 MFI
fluorescence intensity [3, 32]: 17.5 MFI
fluorescence intensity [3, 25]: 23 MFI
fluorescence intensity [3, 26]: 157 MFI
fluorescence intensity [4, 27]: 26.5 MFI
fluorescence intensity [4, 28]: 26 MFI
fluorescence intensity [4, 29]: 25.8 MFI
fluorescence intensity [4, 30]: 26.5 MFI
fluorescence intensity [4, 31]: 27 MFI
fluorescence intensity [4, 32]: 30.5 MFI
fluorescence intensity [4, 25]: 88.2 MFI
fluorescence intensity [4, 26]: 672 MFI
fluorescence intensity [5, 27]: 26 MFI
fluorescence intensity [5, 28]: 25.8 MFI
fluorescence intensity [5, 29]: 26.8 MFI
fluorescence intensity [5, 30]: 26 MFI
fluorescence intensity [5, 31]: 26 MFI
fluorescence intensity [5, 32]: 27 MFI
fluorescence intensity [5, 25]: 30.5 MFI
fluorescence intensity [5, 26]: 50 MFI
fluorescence intensity [6, 27]: 19 MFI
fluorescence intensity [6, 28]: 19.2 MFI
fluorescence intensity [6, 29]: 18 MFI
fluorescence intensity [6, 30]: 18 MFI
fluorescence intensity [6, 31]: 20.5 MFI
fluorescence intensity [6, 32]: 18.8 MFI
fluorescence intensity [6, 25]: 25 MFI
fluorescence intensity [6, 26]: 80.8 MFI
fluorescence intensity [7, 27]: 18 MFI
fluorescence intensity [7, 28]: 18.5 MFI
fluorescence intensity [7, 29]: 18.5 MFI
fluorescence intensity [7, 30]: 19 MFI
fluorescence intensity [7, 31]: 20.8 MFI
fluorescence intensity [7, 32]: 23.2 MFI
fluorescence intensity [7, 25]: 29.5 MFI
fluorescence intensity [7, 26]: 39.8 MFI
fluorescence intensity [8, 27]: 16.5 MFI
fluorescence intensity [8, 28]: 15.5 MFI
fluorescence intensity [8, 29]: 18 MFI
fluorescence intensity [8, 30]: 17 MFI
fluorescence intensity [8, 31]: 16 MFI
fluorescence intensity [8, 32]: 18 MFI
fluorescence intensity [8, 25]: 28 MFI
fluorescence intensity [8, 26]: 234 MFI
fluorescence intensity [9, 27]: 24 MFI
fluorescence intensity [9, 28]: 24 MFI
fluorescence intensity [9, 29]: 23.5 MFI
fluorescence intensity [9, 30]: 23.5 MFI
fluorescence intensity [9, 31]: 24.5 MFI
fluorescence intensity [9, 32]: 24.5 MFI
fluorescence intensity [9, 25]: 25 MFI
fluorescence intensity [9, 26]: 31 MFI
fluorescence intensity [10, 27]: 13 MFI
fluorescence intensity [10, 28]: 12.5 MFI
fluorescence intensity [10, 29]: 11.5 MFI
fluorescence intensity [10, 30]: 14.5 MFI
fluorescence intensity [10, 31]: 13 MFI
fluorescence intensity [10, 32]: 13.5 MFI
fluorescence intensity [10, 25]: 17 MFI
fluorescence intensity [10, 26]: 29 MFI
fluorescence intensity [11, 27]: 12 MFI
fluorescence intensity [11, 28]: 11.5 MFI
fluorescence intensity [11, 29]: 11.2 MFI
fluorescence intensity [11, 30]: 11.5 MFI
fluorescence intensity [11, 31]: 12 MFI
fluorescence intensity [11, 32]: 12.5 MFI
fluorescence intensity [11, 25]: 15 MFI
fluorescence intensity [11, 26]: 78.2 MFI
fluorescence intensity [12, 27]: 16 MFI
fluorescence intensity [12, 28]: 15 MFI
fluorescence intensity [12, 29]: 14.5 MFI
fluorescence intensity [12, 30]: 15.5 MFI
fluorescence intensity [12, 31]: 18 MFI
fluorescence intensity [12, 32]: 18.5 MFI
fluorescence intensity [12, 25]: 46.5 MFI
fluorescence intensity [12, 26]: 516 MFI
fluorescence intensity [13, 27]: 25.5 MFI
fluorescence intensity [13, 28]: 24 MFI
fluorescence intensity [13, 29]: 23.5 MFI
fluorescence intensity [13, 30]: 25.5 MFI
fluorescence intensity [13, 31]: 25.2 MFI
fluorescence intensity [13, 32]: 26.8 MFI
fluorescence intensity [13, 25]: 28 MFI
fluorescence intensity [13, 26]: 38 MFI
fluorescence intensity [14, 27]: 11 MFI
fluorescence intensity [14, 28]: 11.5 MFI
fluorescence intensity [14, 29]: 11.5 MFI
fluorescence intensity [14, 30]: 11 MFI
fluorescence intensity [14, 31]: 10 MFI
fluorescence intensity [14, 32]: 12.5 MFI
fluorescence intensity [14, 25]: 14.8 MFI
fluorescence intensity [14, 26]: 18.5 MFI
fluorescence intensity [15, 27]: 24 MFI
fluorescence intensity [15, 28]: 24 MFI
fluorescence intensity [15, 29]: 23 MFI
fluorescence intensity [15, 30]: 23.8 MFI
fluorescence intensity [15, 31]: 23.5 MFI
fluorescence intensity [15, 32]: 26.5 MFI
fluorescence intensity [15, 25]: 31 MFI
fluorescence intensity [15, 26]: 149 MFI
fluorescence intensity [16, 27]: 15.2 MFI
fluorescence intensity [16, 28]: 16.5 MFI
fluorescence intensity [16, 29]: 16 MFI
fluorescence intensity [16, 30]: 16 MFI
fluorescence intensity [16, 31]: 15.5 MFI
fluorescence intensity [16, 32]: 17 MFI
fluorescence intensity [16, 25]: 17.5 MFI
fluorescence intensity [16, 26]: 40 MFI
fluorescence intensity [17, 27]: 10.5 MFI
fluorescence intensity [17, 28]: 13.2 MFI
fluorescence intensity [17, 29]: 11.5 MFI
fluorescence intensity [17, 30]: 11.5 MFI
fluorescence intensity [17, 31]: 13 MFI
fluorescence intensity [17, 32]: 12.5 MFI
fluorescence intensity [17, 25]: 18.2 MFI
fluorescence intensity [17, 26]: 130 MFI
fluorescence intensity [18, 27]: 22.5 MFI
fluorescence intensity [18, 28]: 23.2 MFI
fluorescence intensity [18, 29]: 21 MFI
fluorescence intensity [18, 30]: 23.5 MFI
fluorescence intensity [18, 31]: 21.2 MFI
fluorescence intensity [18, 32]: 26 MFI
fluorescence intensity [18, 25]: 36.5 MFI
fluorescence intensity [18, 26]: 45.8 MFI
fluorescence intensity [19, 27]: 9.5 MFI
fluorescence intensity [19, 28]: 9.5 MFI
fluorescence intensity [19, 29]: 9 MFI
fluorescence intensity [19, 30]: 9.5 MFI
fluorescence intensity [19, 31]: 8.5 MFI
fluorescence intensity [19, 32]: 11 MFI
fluorescence intensity [19, 25]: 19.5 MFI
fluorescence intensity [19, 26]: 162 MFI
fluorescence intensity [20, 27]: 21.5 MFI
fluorescence intensity [20, 28]: 21 MFI
fluorescence intensity [20, 29]: 23 MFI
fluorescence intensity [20, 30]: 20.5 MFI
fluorescence intensity [20, 31]: 23 MFI
fluorescence intensity [20, 32]: 25 MFI
fluorescence intensity [20, 25]: 29 MFI
fluorescence intensity [20, 26]: 33.8 MFI
fluorescence intensity [21, 27]: 21 MFI
fluorescence intensity [21, 28]: 18.5 MFI
fluorescence intensity [21, 29]: 18 MFI
fluorescence intensity [21, 30]: 19.2 MFI
fluorescence intensity [21, 31]: 20 MFI
fluorescence intensity [21, 32]: 20.5 MFI
fluorescence intensity [21, 25]: 28.8 MFI
fluorescence intensity [21, 26]: 33.5 MFI
fluorescence intensity [22, 27]: 18.2 MFI
fluorescence intensity [22, 28]: 28.5 MFI
fluorescence intensity [22, 29]: 67.2 MFI
fluorescence intensity [22, 30]: 89 MFI
fluorescence intensity [22, 31]: 73 MFI
fluorescence intensity [22, 32]: 90.5 MFI
fluorescence intensity [22, 25]: 75.8 MFI
fluorescence intensity [22, 26]: 124 MFI
fluorescence intensity [23, 27]: 18.5 MFI
fluorescence intensity [23, 28]: 16.5 MFI
fluorescence intensity [23, 29]: 15.8 MFI
fluorescence intensity [23, 30]: 19 MFI
fluorescence intensity [23, 31]: 19 MFI
fluorescence intensity [23, 32]: 17.8 MFI
fluorescence intensity [23, 25]: 21 MFI
fluorescence intensity [23, 26]: 26.2 MFI
fluorescence intensity [24, 27]: 20 MFI
fluorescence intensity [24, 28]: 20.5 MFI
